Assay results from article PMC7943007.
Results are given in words; binding and its absence hold for the method and conditions named. In cells and extracts the contact can be indirect. Some results given as binding are weak or reduced against the parent protein; the word gives no strength.

Amino acid sequences for entries named in this document (tags omitted).
UniProt Q9UER7: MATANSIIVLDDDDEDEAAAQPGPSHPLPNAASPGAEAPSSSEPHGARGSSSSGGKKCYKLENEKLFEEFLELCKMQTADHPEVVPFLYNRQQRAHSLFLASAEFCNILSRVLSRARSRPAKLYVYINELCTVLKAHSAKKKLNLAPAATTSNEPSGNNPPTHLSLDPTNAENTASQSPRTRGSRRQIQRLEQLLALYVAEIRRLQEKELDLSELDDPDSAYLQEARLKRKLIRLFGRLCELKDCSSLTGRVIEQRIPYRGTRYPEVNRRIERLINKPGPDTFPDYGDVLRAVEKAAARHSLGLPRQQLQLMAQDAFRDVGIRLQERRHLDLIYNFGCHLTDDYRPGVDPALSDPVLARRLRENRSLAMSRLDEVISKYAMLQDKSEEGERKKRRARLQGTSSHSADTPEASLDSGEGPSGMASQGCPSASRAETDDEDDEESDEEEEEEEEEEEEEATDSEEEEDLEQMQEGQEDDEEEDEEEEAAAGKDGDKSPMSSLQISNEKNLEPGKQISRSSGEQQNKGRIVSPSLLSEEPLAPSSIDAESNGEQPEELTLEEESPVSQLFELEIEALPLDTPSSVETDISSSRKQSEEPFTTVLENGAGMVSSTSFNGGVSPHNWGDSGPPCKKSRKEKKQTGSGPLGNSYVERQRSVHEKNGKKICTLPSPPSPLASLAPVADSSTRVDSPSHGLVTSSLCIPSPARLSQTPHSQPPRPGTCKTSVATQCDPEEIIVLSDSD
UniProt Q9QR71: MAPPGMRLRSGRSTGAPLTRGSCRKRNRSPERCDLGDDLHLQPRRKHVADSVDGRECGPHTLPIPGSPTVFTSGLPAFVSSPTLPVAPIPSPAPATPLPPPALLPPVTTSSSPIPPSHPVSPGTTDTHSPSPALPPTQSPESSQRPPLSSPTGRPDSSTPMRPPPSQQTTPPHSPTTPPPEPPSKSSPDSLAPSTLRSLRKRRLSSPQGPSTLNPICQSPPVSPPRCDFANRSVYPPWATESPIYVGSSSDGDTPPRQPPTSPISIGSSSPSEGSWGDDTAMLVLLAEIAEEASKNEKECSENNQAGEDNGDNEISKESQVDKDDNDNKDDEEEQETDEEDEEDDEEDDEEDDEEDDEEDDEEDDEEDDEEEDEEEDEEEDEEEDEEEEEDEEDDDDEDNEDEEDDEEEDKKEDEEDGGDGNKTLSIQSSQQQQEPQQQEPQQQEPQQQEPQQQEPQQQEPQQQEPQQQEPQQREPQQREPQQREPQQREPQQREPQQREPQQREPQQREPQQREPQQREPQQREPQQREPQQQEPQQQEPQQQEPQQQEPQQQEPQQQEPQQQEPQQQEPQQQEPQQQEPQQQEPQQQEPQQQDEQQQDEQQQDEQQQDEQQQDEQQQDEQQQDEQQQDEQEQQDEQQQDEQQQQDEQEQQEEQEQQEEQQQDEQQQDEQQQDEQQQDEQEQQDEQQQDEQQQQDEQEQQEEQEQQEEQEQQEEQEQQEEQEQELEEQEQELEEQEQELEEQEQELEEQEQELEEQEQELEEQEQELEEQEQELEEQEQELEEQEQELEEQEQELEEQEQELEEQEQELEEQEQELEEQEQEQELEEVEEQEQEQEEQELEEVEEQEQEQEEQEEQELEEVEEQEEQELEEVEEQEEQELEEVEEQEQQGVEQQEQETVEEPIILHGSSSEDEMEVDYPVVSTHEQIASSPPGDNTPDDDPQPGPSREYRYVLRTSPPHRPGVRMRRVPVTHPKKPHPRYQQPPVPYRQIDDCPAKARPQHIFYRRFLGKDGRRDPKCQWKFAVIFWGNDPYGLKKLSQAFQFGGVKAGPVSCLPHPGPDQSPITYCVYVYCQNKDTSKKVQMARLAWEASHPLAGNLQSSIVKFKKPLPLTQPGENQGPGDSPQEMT

Target: DAXX (human (endogenous in iSLK)) (UniProt Q9UER7)
Assay: co-IP; iSLK RFP-LANA cells, untreated (DMSO control) or treated with 3.5% 1,6-Hexanediol for 1 hr; lysis in 20 mM Tris pH 7.5, 137 mM KCl, 1 mM EDTA, 1.5 mM MgCl2, 10% glycerol, 1% Triton X-100; IP with antibodies to LANA, DAXX or control IgG at 4 C overnight; washes BC200 and BC100; Western blot

“RFP-LANA (KSHV latency-associated nuclear antigen, expressed from KSHV BAC16) (from UniProt Q9QR71 1-1129)” was tested, and the binding was “binds”.
